Laboratory results taken from PubChem BioAssay (NCATS).
This list was built around the results that the source calls inconclusive (neither active nor inactive); the mix of calls is not that of the screen. For part of these data: Potencies beside an inconclusive call are fits to weak or partial responses and may not hold up. Calls of active or inactive are those of the source. Calls come from the whole dose curve; as a rule, active = well fitted curve in the direction sought with a large enough effect; inconclusive = small, poorly fitted or top-dose-only effect, or another doubt; inactive = no such curve, though single readings can be large; an effect the other way counts as inactive or inconclusive.

Tests used:
[1] = Quantitative High-Throughput drug screen in 47 multiple myeloma cell lines against the NCATS MIPE library collection: ARP1_JJKsccF8 cell viability assay (AID 1918928; note: nearly all actives have a fitted effect of over 40% in size); details: ARP1 myeloma cells viability, CellTiter-Glo ATP, 48 h; viability: at 45.8 µM (top of the series)
In short: (§1)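 Cell viability inhibition in this qHTS is measured via ATP content (CellTiter-Glo) after 48 h drug exposure at 37 °C. Wells hold 500 cells; DMSO-treated wells define 100% and medium-only wells 0%.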

[2] = Quantitative High-Throughput drug screen in 47 multiple myeloma cell lines against the NCATS MIPE library collection: Karpas620_DSMZ cell viability assay (AID 1918959); details: Karpas620 myeloma viability, CellTiter-Glo ATP luminescence, 48 h; viability (% of DMSO): at 45.8 µM (top of the series); note: nearly all actives have a fitted effect of over 30% in size
In short: (§2)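 Myeloma cells (500 per well) were exposed to MIPE 4.0 compounds by pin transfer and incubated 48 hours at 37C, 5% CO2. Viability was read as ATP by CellTiter-Glo luminescence, normalised to DMSO (100%) and media-only (0%) wells.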

[3] = Quantitative High-Throughput drug screen in 47 multiple myeloma cell lines against the NCATS MIPE library collection: KMM1_JCRB cell viability assay (AID 1918960); details: KMM1 myeloma viability, CellTiter-Glo ATP luminescence, 48 h; viability (% of DMSO): at 45.8 µM (top of the series); note: nearly all actives have a fitted effect of over 30% in size
In short: as §1

[4] = Quantitative High-Throughput drug screen in 47 multiple myeloma cell lines against the NCATS MIPE library collection: JIM1_ECACC cell viability assay (AID 1918964); details: JIM1 myeloma viability, CellTiter-Glo ATP luminescence, 48 h; viability (% of DMSO): at 45.8 µM (top of the series)
In short: (§3)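 Myeloma cell lines, 500 cells per well, exposed to MIPE 4.0 library compounds for 48 h at 37C, 5% CO2. Viability from ATP by CellTiter-Glo luminescence; normalised to DMSO (100%) and media-only (0%) wells.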

[5] = Quantitative High-Throughput drug screen in 47 multiple myeloma cell lines against the NCATS MIPE library collection: ARD_JJKsccE7 cell viability assay (AID 1918929); details: ARD myeloma cell line viability, CellTiter-Glo, 48 h; viability: at 45.8 µM (top of the series) unless noted
In short: as §3

[6] = Quantitative High-Throughput drug screen in 47 multiple myeloma cell lines against the NCATS MIPE library collection: Karpas417_ECACC cell viability assay (AID 1918961); details: Karpas417 myeloma viability, CellTiter-Glo ATP luminescence, 48 h; viability (% of DMSO): at 45.8 µM (top of the series) unless noted
In short: (§4)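 CellTiter-Glo ATP luminescence gave viability after 48 h compound treatment at 37C of 500 multiple myeloma cells per well. Normalisation used DMSO-only wells as 100% and media-only wells as 0% viability; primary qHTS of approved and investigational drugs.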

[7] = Quantitative High-Throughput drug screen in 47 multiple myeloma cell lines against the NCATS MIPE library collection: KHM11_PLB cell viability assay (AID 1918962); details: KHM11 myeloma cell viability, CellTiter-Glo ATP luminescence, 48 h; viability, % of DMSO control: at 45.8 µM (top of the series); note: nearly all actives have a fitted effect of over 35% in size
In short: as §2

[8] = Quantitative High-Throughput drug screen in 47 multiple myeloma cell lines against the NCATS MIPE library collection: JIM3_ECACC cell viability assay (AID 1918963; note: nearly all actives have a fitted effect of over 35% in size); details: JIM3 myeloma viability, CellTiter-Glo ATP, 48 h; viability, percent of control: at 45.8 µM (top of the series)
In short: as §2

[9] = Quantitative High-Throughput drug screen in 47 multiple myeloma cell lines against the NCATS MIPE library collection: INA6_PLB cell viability assay (AID 1918965; note: nearly all actives have a fitted effect of over 55% in size); details: INA6 myeloma viability, CellTiter-Glo ATP luminescence, 48 h; viability (% of control): at 45.8 µM (top of the series)
In short: as §4
Potency is the fitted concentration of half-maximal effect.

For CC(C)(C)NC(=O)[C@H]1CC[C@H]2[C@@H]3CC[C@H]4NC(=O)C=C[C@]4(C)[C@H]3CC[C@]12C, the Potency [1] was “inactive”, the Potency [2] was inconclusive: 18700 nM [cytotoxic, partial curve] and the Potency [3] was inconclusive: 20900 nM [cytotoxic, partial curve]. The Potency [4] was “inactive”.
In the case of Nc1ccc(C(=O)Nc2cccc(-c3nc(N4CCOCC4)c4oc5ncccc5c4n3)c2)cn1, the Potency [1] is reported as active: 6620 nM, the Potency [2] is reported as active: 6620 nM and the Potency [4] is reported as active: 5260 nM.
In the case of O=C(O)c1ccc(Nc2ncc3c(n2)-c2ccc(Cl)cc2C(c2c(F)cccc2F)=NC3)cc1, the Potency [5] is reported as inconclusive: 46.9 nM [cytotoxic, full curve, poor fit], the Potency [2] is reported as inconclusive: 187 nM [cytotoxic, full curve, poor fit] and the Potency [3] is reported as inconclusive: 23500 nM [cytotoxic, partial curve]. For the same compound, the Potency [6] was “inactive”, the Potency [7] was inconclusive: 235 nM [cytotoxic, full curve, poor fit] and the Potency [8] was active: 4690 nM. For the same compound, the Potency [4] was inconclusive: 3320 nM [rising, full curve, poor fit].
With CC(C)c1cnn2c(NCc3ccccc3)cc(NCCCCCCN)nc12 the Potency [5] was active: 20900 nM, the Potency [2] was inconclusive: 29600 nM [cytotoxic, single point] and the Potency [6] was inconclusive: 8330 nM [cytotoxic, partial curve, poor fit]. The Potency [7] was inconclusive: 20900 nM [cytotoxic, partial curve, poor fit] and the Potency [4] was inconclusive: 26400 nM [cytotoxic, partial curve, poor fit].
In the case of Nc1[nH]nc2nnc(-c3c(-c4ccccc4)nn4ccccc34)cc12, the Potency [1] is reported as inconclusive: 20900 nM [cytotoxic, partial curve], the Potency [3] is reported as active: 4690 nM and the Potency [4] is reported as active: 3320 nM.
For COc1ccc(-c2ccc3c(N4CCOCC4)nc(N4C[C@@H](C)O[C@@H](C)C4)nc3n2)cc1CO, the Potency [1] was active: 264 nM, the Potency [3] was active: 209 nM and the Potency [6] was active: 148 nM. The Potency [4] was active: 33.2 nM.
With CN(C)CCN(C)C(=O)c1ccc(NC(=O)Nc2ccc(-c3nc(N4CCOCC4)c4ccn(CC(F)(F)F)c4n3)cc2)cc1 the Potency [5] was active: 23.5 nM, the Potency [2] was inconclusive: 743 nM [cytotoxic, partial curve] and the Potency [3] was inconclusive: 10.5 nM [cytotoxic, full curve]. For the same compound, the Potency [6] was inconclusive: 46.9 nM [cytotoxic, full curve], the Potency [7] was inconclusive: 14.8 nM [cytotoxic, full curve] and the viability (% of control) [9] was inconclusive: 2.06% [cytotoxic].
In the case of CO[C@@]12[C@H](COC(N)=O)C3=C(C(=O)C(C)=C(N)C3=O)N1C[C@@H]1N[C@@H]12, the Potency [1] is reported as active: 26400 nM, the Potency [6] is reported as inconclusive: 526 nM [cytotoxic, full curve, poor fit] and the Potency [8] is reported as active: 26400 nM. The Potency [4] was inconclusive: 235 nM [cytotoxic, full curve, poor fit].
For C=Cc1c(C)c2cc3nc(cc4[nH]c(cc5nc(cc1[nH]2)C(C)=C5CCC(=O)O)c(CCC(=O)OC)c4C)[C@@]1(C)C3=CC=C(C(=O)OC)[C@H]1C(=O)OC, the Potency [1] was active: 743 nM, the Potency [3] was active: 187 nM and the Potency [7] was active: 526 nM. The Potency [4] was active: 148 nM.
For CC(=O)[C@]1(O)Cc2c(O)c3c(c(O)c2[C@@H](O[C@H]2C[C@H](N)[C@@H](O)[C@H](C)O2)C1)C(=O)c1ccccc1C3=O, the Potency [1] was active: 264 nM, the Potency [6] was active: 2350 nM and the Potency [7] was active: 296 nM. For the same compound, the Potency [4] was active: 1180 nM and the Potency [9] was active: 93.5 nM.
For CC[C@@H]1C(=O)N(C)c2cnc(Nc3ccc(C(=O)NC4CCN(C)CC4)cc3OC)nc2N1C1CCCC1, the Potency [1] was active: 37.2 nM, the Potency [2] was inconclusive: 16600 nM [cytotoxic, partial curve, poor fit] and the Potency [6] was active: 1870 nM. The Potency [7] was inconclusive: 6620 nM [cytotoxic, partial curve, poor fit] and the Potency [4] was inconclusive: 14800 nM [cytotoxic, partial curve, poor fit].
With O=C(c1ccc(C(=O)N2CCC(N3CCCC3)CC2)c(Nc2ccccc2)c1)N1CCC(N2CCCC2)CC1 the Potency [5] was “inactive”, the Potency [2] was “inactive” and the Potency [7] was “inactive”. For the same compound, the Potency [8] was “inactive”, the Potency [4] was inconclusive: 10500 nM [cytotoxic, full curve, poor fit] and the Potency [9] was inconclusive: 3.3 nM [rising, full curve, poor fit].
In the case of CCCc1nc(C)c2c(=O)[nH]c(-c3cc(S(=O)(=O)N4CCN(CC)CC4)ccc3OCC)nn12, the Potency [1] is reported as active: 5260 nM, the Potency [6] is reported as inconclusive: 1660 nM [cytotoxic, full curve, poor fit] and the Potency [7] is reported as active: 9350 nM. For the same compound, the Potency [4] was active: 5260 nM.
In the case of CO[C@@H]1[C@@H](O)[C@H](O)[C@@H](n2c3c(Cl)cccc3c3c4c(c5c6cccc(Cl)c6[nH]c5c32)C(=O)NC4=O)O[C@@H]1CO, the Potency [1] is reported as inconclusive: 1480 nM [cytotoxic, full curve, poor fit], the Potency [3] is reported as active: 264 nM and the Potency [6] is reported as active: 1320 nM. The Potency [4] was active: 526 nM.
For O=C1NC(=O)C(=Cc2ccc3nccc(-c4ccncc4)c3c2)S1, the Potency [1] was active: 83.3 nM, the Potency [2] was active: 296 nM and the viability (% of DMSO) [6] was inconclusive: 0.792% [cytotoxic]. For the same compound, the Potency [7] was active: 46.9 nM and the Potency [4] was active: 29.6 nM.
